Measured values reported in patent publication US9248145B2, “Two alkylresorcinol synthase genes from sorghum; cloning, expression, transformation and characterization” (The United States of America, as represented by The …, priority 2010, dated 2016).

Columns and labels:
Experiment in all cases: Polyketide synthase enzyme assay, alkylresorcinol synthase activity
Type in all cases: biochemical, Oryza sativa
recombinant Os10g08620 = tested on: recombinant Os10g08620
Protocol: (§1) Polyketide synthase enzyme assays, performed in triplicate, contained 100 mM potassium phosphate buffer (pH 7.0), 40 μM malonyl-CoA, 25 μM starter unit (e.g., palmitoyl-CoA), and 2 μg protein in a 200 μL volume at 30° C. for 15 min. […] Reactions were quenched by addition of 10 μL of 20% HCl, and products were extracted by phase partitioning with 1 ml of ethyl acetate. The organic phase (upper layer) obtained by centrifugation at ˜14,000×g for 1 min was transferred to a fresh tube, dried under vacuum, and subsequently analyzed by GC-EI-MS as a trimethysilyl (TMS) derivative. Product formation was quantified using selective ion monitoring at m/z 268, a fragment ion common to all alkylresorcinols, generated by benzylic cleavage of the alkyl side chain. The identification of the m/z 268 [(5-methyl-1,3 phenylene)bis(oxy)bis(TMS)]^+ base ion and the parent [M]^+ provide confirmation of the 5-alkylresorcinolic structure as well as the length and degree of saturation of the associated side chain (Occolowitz, 1964. Anal. Chem. 36:2177-2181; Suzuki et al. 1996, supra; Suzuki at al. 2003, supra).
(§2) Enzyme assays, performed in triplicate, for starter unit CoA kinetics contained 100 mM potassium phosphate buffer (pH 7.0), 40 μM [2-^14C]-malonyl-CoA (50-60 mCi/mmol, 1.85-2.22 GBq/mmol; American Radiolabeled Chemicals, Inc., St. Louis, Mo.), 1.43-10 μM starter unit (e.g., palmitoyl-CoA), and 0.75 μg protein in a 200 μL volume at 30° C. for 5 min. Enzyme assays for malonyl-CoA kinetics contained 100 mM potassium phosphate buffer (pH 7.0), 1.66-25 μM [2-^14C]-malonyl-CoA, 25 μM starter unit (palmitoleoyl-CoA), and 0.75 μg protein in a 200 μL volume at 30° C. for 5 min. Reactions were quenched by addition of 10 μL of 20% HCl. The products were extracted as described above, and were separated by thin layer chromatography (silica gel 60 F254; chloroform:ethyl acetate=70:30; 15 min). Product detection and formation was quantified through the use of the Cyclone storage phosphor system and OptiQuant 3.0 image analysis software (PerkinElmer, Wellesley, Mass.). Data were fit to the Michaelis-Menten equation using the Sigma Plot 9.01 enzyme kinetics module (Systat, Inc., San Jose, Calif.).
(§3) To explore this possibility, the predicted open reading frames encoded by O. sativa (cv. Nipponbare) LOC_Os05g12180, LOC_Os10g08620, and LOC_Os10g07040, were also expressed in E. coli as N-terminal polyhistidine fusions, and tested for alkylresorcinol synthase activity with the same panel of fatty acyl-CoA substrates used for recombinant ARS1 and ARS2 enzymatic studies (FIG. 4).

recombinant Os05g12180 = tested on: recombinant Os05g12180
Protocol: as §1, §2, §3

recombinant Os10g07040 = tested on: recombinant Os10g07040
Protocol: as §1, §2, §3

Row | SMILES | triketide pyrone derailment product, share of the total moles product formed (recombinant Os10g08620) | triketide pyrone derailment product, share of the total moles product derived from the starter (recombinant Os05g12180) | triketide pyrone derailment product, share of the total moles product formed (recombinant Os10g07040)
1 | CCCCCC(=O)SCCNC(=O)CCNC(=O)[C@H](O)C(C)(C)COP(=O)(O)OP(=O)(O)OC[C@H]1O[C@@H](n2cnc3c(N)ncnc32)[C@H](O)[C@@H]1OP(=O)(O)O [caproyl-CoA] | ~17% | ~11% | ~20%
2 | CCCCCCCCCCCCCC(=O)SCCNC(=O)CCNC(=O)[C@H](O)C(C)(C)COP(=O)(O)OP(=O)(O)OC[C@H]1O[C@@H](n2cnc3c(N)ncnc32)[C@H](O)[C@@H]1OP(=O)(O)O [myristoyl-CoA] |  |  | < 5%
3 | CCCCCCCC(=O)SCCNC(=O)CCNC(=O)[C@H](O)C(C)(C)COP(=O)(O)OP(=O)(O)OC[C@H]1O[C@@H](n2cnc3c(N)ncnc32)[C@H](O)[C@@H]1OP(=O)(O)O [capryloyl-CoA] | approximately 8% | approximately 7% | approximately 8%
4 | CCCCCCCCCCCC(=O)SCCNC(=O)CCNC(=O)[C@H](O)C(C)(C)COP(=O)(O)OP(=O)(O)OC[C@H]1O[C@@H](n2cnc3c(N)ncnc32)[C@H](O)[C@@H]1OP(=O)(O)O [lauroyl-CoA] |  | approximately 8% | ~6%
